{"sequences": {"note": "Protein sequences, listed by entry. Tags and fused reporters are not part of them. Lines headed by an entry give the natural chain unless they say otherwise; changes in a name come on top.", "UniProt P51450": "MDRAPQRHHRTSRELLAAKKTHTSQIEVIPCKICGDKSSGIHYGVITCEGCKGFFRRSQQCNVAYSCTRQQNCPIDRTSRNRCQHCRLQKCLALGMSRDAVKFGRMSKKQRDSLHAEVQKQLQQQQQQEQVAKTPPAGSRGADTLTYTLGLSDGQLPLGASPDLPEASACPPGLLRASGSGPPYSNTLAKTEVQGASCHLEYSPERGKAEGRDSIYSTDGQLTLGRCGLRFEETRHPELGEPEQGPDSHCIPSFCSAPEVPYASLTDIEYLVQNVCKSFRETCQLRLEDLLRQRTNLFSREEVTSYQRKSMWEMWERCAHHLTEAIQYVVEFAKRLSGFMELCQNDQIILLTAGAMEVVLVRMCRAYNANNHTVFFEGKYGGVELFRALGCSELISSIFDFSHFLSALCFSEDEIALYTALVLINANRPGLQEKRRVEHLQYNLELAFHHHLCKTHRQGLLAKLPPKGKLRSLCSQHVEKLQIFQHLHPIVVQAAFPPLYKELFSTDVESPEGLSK"}, "source": "PubChem BioAssay AID2551", "about": "(National Center for Advancing Translational Sciences (NCATS), 2010)", "note": "About 17,000 (5.5%) of roughly 310,000 compounds were called active. The shares of active, inactive and inconclusive entries below differ from those in the screen. Calls come from the whole dose curve; as a rule, active = well fitted inhibition curve with a large enough effect; inconclusive = small, poorly fitted or top-dose-only effect, or effect the other way; inactive = no such curve, though single readings can be large or run the other way. A potency beside an inconclusive call is a rough fit, not a confirmed value. % is set by controls: 0 for no effect and ±100 for the full control effect; potency is the fitted concentration of half-maximal effect.", "data": [{"target": "Nuclear receptor ROR-gamma (Mus musculus) (UniProt P51450)", "assay": "qHTS for inhibitors of ROR gamma transcriptional activity; note: nearly all actives have a fitted effect of over 60% in size", "conditions": "Drosophila S2 Gal4-RORgamma UAS-luciferase reporter, 20 h; activity change, negative = inhibition: at 53.6 µM (top of the series)", "how_it_was_run": "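Drosophila Schneider cells stably carrying a metallothionein-driven Gal4 DBD–ROR gamma fusion and a UAS-Photinus luciferase reporter were exposed to compound for 1 hr, then induced with copper sulfate (700 uM final) for 20 hr at ambient temperature before luminescence reading.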", "values": [{"smiles": "Cc1ccc(NC(=O)CCc2ccc(S(=O)(=O)NC3CCCCC3)cc2)cc1", "Potency": "inconclusive: 35.5 µM [activator, single point]"}, {"smiles": "COc1cc(C(=S)N2CCN(C(c3ccccc3)c3ccccc3)CC2)cc(OC)c1O", "Potency": "inconclusive: 12.6 µM [activator, single point]"}, {"smiles": "Cn1c(O)c(N=NC(=O)Cn2c(C(F)(F)F)nc3ccccc32)c2ccccc21", "Potency": "inconclusive: 31.6 µM [activator, single point]"}, {"smiles": "COc1cc(OC)c(NC(=S)Nc2cc(Cl)cc(Cl)c2)cc1Cl", "Potency": "active: 12.6 µM"}, {"smiles": "CC(/C=N\\Nc1nnc2c(n1)[nH]c1c(C)cccc12)=C\\c1ccco1", "Potency": "inconclusive: 3.16 µM [activator, partial curve]"}, {"smiles": "O=C(Nc1ccccc1)Nc1ccc(Cl)c([N+](=O)[O-])c1", "Potency": "inconclusive: 31.6 µM [inhibitor, single point]"}, {"smiles": "O=C(O)c1ccc(N=NN2CCCCC2)cc1", "Potency": "inconclusive: 11.2 µM [inhibitor, single point]"}, {"smiles": "CN(C)CCCNc1nc(-c2ccccc2)nc2ccccc12", "Potency": "inactive"}, {"smiles": "O=S1(=O)N=C(Nc2ccc(O)c(CN3CCCCC3)c2)c2ccccc21", "Potency": "inconclusive: 31.6 µM [inhibitor, partial curve, poor fit]"}, {"smiles": "COc1ccc(Cc2nc3ccc(C(=O)N4CCCC4)cc3o2)cc1OC", "Potency": "inconclusive: 14.1 µM [activator, partial curve]"}, {"smiles": "Cc1cc2c(sc3ccccc32)c(C)n1", "Potency": "inconclusive: 14.1 µM [inhibitor, partial curve]"}, {"smiles": "COc1ccc(N=Nc2[nH]c3ccc(C)cc3c2O)cc1", "Potency": "inconclusive: 11.2 µM [activator, single point]"}, {"smiles": "COc1ccc(-c2nc3ccc(C)cn3c2NCc2ccc3c(c2)OCO3)cc1", "Potency": "inactive"}, {"smiles": "CCc1ccccc1NC(=S)N(CCN(C)C)C(C)c1ccco1", "note": "(stereo unspecified)", "Potency": "inconclusive: 15.8 µM [inhibitor, single point]"}, {"smiles": "Cc1cc(C)cc(OCC(=O)Nc2ccc3c4c(cccc24)CC3)c1", "Potency": "inconclusive: 35.5 µM [inhibitor, single point]"}, {"smiles": "COc1ccc(CCN(Cc2nc3ccccc3c(=O)[nH]2)C(=O)c2ccco2)cc1OC", "Potency": "inactive"}, {"smiles": "CCOC(=O)c1sc(N(Cc2ccccc2)C(=O)COC(=O)c2ccc(O)cc2)nc1C", "Potency": "inconclusive: 3.55 µM [activator, single point]"}, {"smiles": "O=C(NC1CCCC1)O[C@@H]1C(=O)c2cc(Br)ccc2O[C@H]1c1ccc2c(c1)OCO2", "Potency": "inactive"}, {"smiles": "CCC(=O)Nc1ccc(C=C(C(C)=O)C(C)=O)cc1", "Potency": "inactive"}, {"smiles": "CN(CC(=O)Nc1cccc(C(F)(F)F)c1)Cc1ccccc1", "Potency": "inconclusive: 15.8 µM [activator, single point]"}, {"smiles": "COc1cccc(C(=O)COc2cccc(NC(=O)c3cccc([N+](=O)[O-])c3)c2)c1", "Potency": "inconclusive: 17.8 µM [activator, partial curve]"}, {"smiles": "CCC/C(=N/NC(=O)c1ccc2c(c1)OCO2)c1cccs1", "Potency": "inconclusive: 35.5 µM [activator, single point]"}, {"smiles": "CCOc1cc(C(=S)N2CCCCC2)ccc1OS(=O)(=O)c1ccc(Br)cc1", "Potency": "active: 7.08 µM"}, {"smiles": "CCN(CC)S(=O)(=O)c1ccc(C)c(NC(=O)COc2ccc(Br)cc2Cl)c1", "Potency": "inconclusive: 10 µM [inhibitor, partial curve]"}, {"smiles": "CC(CN1CCCCC1)NC(=O)c1cc(-c2ccccn2)nc2ccc(Cl)cc12", "note": "(stereo unspecified)", "Potency": "inactive"}, {"smiles": "CCOC(=O)c1sc2nc(N3CCOCC3)c3c(c2c1N)CCCC3", "activity change, negative = inhibition": "inactive: -2.92% [at 10 µM]"}, {"smiles": "O=C(CN1CCN(S(=O)(=O)c2ccc3ccccc3c2)CC1)Nc1ccc2c(c1)CCC2", "Potency": "inconclusive: 20 µM [activator, single point]"}, {"smiles": "O=C(COC(=O)/C=C/c1ccccc1Cl)NCCNC(=O)COC(=O)/C=C/c1ccccc1Cl", "Potency": "inconclusive: 3.55 µM [inhibitor, single point]"}, {"smiles": "Cc1cc(C(=O)NN)c2cc(Br)ccc2n1", "Potency": "inactive"}, {"smiles": "NNc1nc2c(Cl)ccc(Cl)c2s1", "Potency": "active: 11.2 µM"}, {"smiles": "Cc1cc([N+](=O)[O-])c2c(c1C)C1C=CCC1C(c1ccccn1)N2", "note": "(stereo unspecified)", "Potency": "inconclusive: 35.5 µM [inhibitor, single point]"}, {"smiles": "O=C(NCc1cccs1)C(=O)NCC1OCCCN1S(=O)(=O)c1cccs1", "note": "(stereo unspecified)", "Potency": "inactive"}, {"smiles": "C=C(C)C(=O)Nc1ccc(OC(F)(F)C(F)F)c(NC(=O)C(=C)C)c1", "Potency": "inconclusive: 14.1 µM [activator, single point]"}, {"smiles": "COc1ccc(C)cc1-n1nnnc1SCC(=O)Nc1cc(C)on1", "Potency": "inconclusive: 15.8 µM [activator, single point]"}, {"smiles": "C/C(=N\\NC(=O)CO/N=C(\\C)c1cccs1)c1ccc(N)cc1", "Potency": "inactive"}, {"smiles": "COc1ccc(/C=N/Nc2nccnc2Cl)cc1", "Potency": "inconclusive: 11.2 µM [inhibitor, single point]"}, {"smiles": "CCn1c(CSCc2ccccc2)n[nH]c1=S", "Potency": "active: 3.98 µM"}, {"smiles": "Cc1ccc(CN2CCN(Cc3cn(C(C)C)c4ccccc34)CC2CCO)o1", "note": "(stereo unspecified)", "Potency": "inconclusive: 5.62 µM [inhibitor, single point]"}, {"smiles": "COc1ccc(CN2CCNC(=O)C2CC(=O)NCCc2nc(C)c(C)s2)c(OC)c1", "note": "(stereo unspecified)", "Potency": "inactive"}, {"smiles": "CC(NC(=O)C1CC1)c1ccc(-c2ccccc2)cc1", "note": "(stereo unspecified)", "Potency": "inconclusive: 14.1 µM [activator, single point]"}, {"smiles": "Cc1cc2cc(CN(Cc3ccc4c(c3)OCO4)C(=O)c3ccco3)c(=O)[nH]c2cc1C", "Potency": "inconclusive: 10 µM [activator, partial curve]"}, {"smiles": "CC1(C)CC(NC(=O)c2cc(COc3cccc(C(F)(F)F)c3)on2)CCO1", "note": "(stereo unspecified)", "Potency": "inconclusive: 17.8 µM [activator, partial curve]"}, {"smiles": "CCCNC(C)(C)COC(=O)c1ccccc1", "Potency": "inactive"}, {"smiles": "CCOc1ccccc1N1CCN(C(=S)Nc2ccc(S(N)(=O)=O)cc2)CC1", "Potency": "inconclusive: 15.8 µM [activator, partial curve]"}, {"smiles": "Cc1cc(Cl)c(OCCN2C(=O)NC(C)(C)C2=O)c(Br)c1", "Potency": "inactive"}, {"smiles": "CCN(CC)CC(C)CNC(=O)CC(C(=O)N1CCc2ccccc21)n1ccnc1", "note": "(stereo unspecified)", "Potency": "active: 11.2 µM"}]}]}
